For one compound, IC50 results are on record in US8623862B2, “Derivatives of N-[(1H-pyrazol-1-yl)aryl]-1H-indole or 1H-indazole-3-carboxamide, preparation thereof and applications thereof in therapeutics” (Sanofi, priority 2011, dated 2014).

Structures are written as SMILES.

The subject of this test is platelet aggregation. Put plainly: Inhibition of platelet aggregation in vitro (rat blood).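 Note: aggregation induced by ADP added as 4 µL of a 250 µM solution.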 In kind it is cell-based. The procedure:
The measurements of platelet aggregation are performed at 37° C. in glass tubes (Chrono-Log—Kordia aggregometer).
Inhibition of Platelet Aggregation In Vitro (Rat Blood)
The blood is taken from male rats of the Sprague-Dawley strain, weighing 250-300 g.
The platelet-rich plasma (PRP) is obtained by centrifugation of the blood at 300 g for 5 minutes, and the measurements of platelet aggregation are performed as described above.
The results are calculated using the area under the curve of absorbance measured for 6 minutes, and expressed as percentage inhibition.

One may read the IC50 as the concentration needed to halve the response being measured. A lower IC50 goes with greater potency. Regarding `CCCC(=O)c1cnn(-c2ccc(NC(=O)c3cn(CC(=O)N4CCN(Cc5cc(C)on5)CC4)c4ccc(Cl)cc34)cc2)c1C.Cl` [Compound 166], half-maximal inhibition (IC50) was put at 140 nM.
